Reference: article PMC10250389

By UniProt entry, the sequences of proteins in these tests, tags left out. Where a name states a change or a piece, a line headed by the entry shows the natural chain unless it says otherwise.
UniProt P01024: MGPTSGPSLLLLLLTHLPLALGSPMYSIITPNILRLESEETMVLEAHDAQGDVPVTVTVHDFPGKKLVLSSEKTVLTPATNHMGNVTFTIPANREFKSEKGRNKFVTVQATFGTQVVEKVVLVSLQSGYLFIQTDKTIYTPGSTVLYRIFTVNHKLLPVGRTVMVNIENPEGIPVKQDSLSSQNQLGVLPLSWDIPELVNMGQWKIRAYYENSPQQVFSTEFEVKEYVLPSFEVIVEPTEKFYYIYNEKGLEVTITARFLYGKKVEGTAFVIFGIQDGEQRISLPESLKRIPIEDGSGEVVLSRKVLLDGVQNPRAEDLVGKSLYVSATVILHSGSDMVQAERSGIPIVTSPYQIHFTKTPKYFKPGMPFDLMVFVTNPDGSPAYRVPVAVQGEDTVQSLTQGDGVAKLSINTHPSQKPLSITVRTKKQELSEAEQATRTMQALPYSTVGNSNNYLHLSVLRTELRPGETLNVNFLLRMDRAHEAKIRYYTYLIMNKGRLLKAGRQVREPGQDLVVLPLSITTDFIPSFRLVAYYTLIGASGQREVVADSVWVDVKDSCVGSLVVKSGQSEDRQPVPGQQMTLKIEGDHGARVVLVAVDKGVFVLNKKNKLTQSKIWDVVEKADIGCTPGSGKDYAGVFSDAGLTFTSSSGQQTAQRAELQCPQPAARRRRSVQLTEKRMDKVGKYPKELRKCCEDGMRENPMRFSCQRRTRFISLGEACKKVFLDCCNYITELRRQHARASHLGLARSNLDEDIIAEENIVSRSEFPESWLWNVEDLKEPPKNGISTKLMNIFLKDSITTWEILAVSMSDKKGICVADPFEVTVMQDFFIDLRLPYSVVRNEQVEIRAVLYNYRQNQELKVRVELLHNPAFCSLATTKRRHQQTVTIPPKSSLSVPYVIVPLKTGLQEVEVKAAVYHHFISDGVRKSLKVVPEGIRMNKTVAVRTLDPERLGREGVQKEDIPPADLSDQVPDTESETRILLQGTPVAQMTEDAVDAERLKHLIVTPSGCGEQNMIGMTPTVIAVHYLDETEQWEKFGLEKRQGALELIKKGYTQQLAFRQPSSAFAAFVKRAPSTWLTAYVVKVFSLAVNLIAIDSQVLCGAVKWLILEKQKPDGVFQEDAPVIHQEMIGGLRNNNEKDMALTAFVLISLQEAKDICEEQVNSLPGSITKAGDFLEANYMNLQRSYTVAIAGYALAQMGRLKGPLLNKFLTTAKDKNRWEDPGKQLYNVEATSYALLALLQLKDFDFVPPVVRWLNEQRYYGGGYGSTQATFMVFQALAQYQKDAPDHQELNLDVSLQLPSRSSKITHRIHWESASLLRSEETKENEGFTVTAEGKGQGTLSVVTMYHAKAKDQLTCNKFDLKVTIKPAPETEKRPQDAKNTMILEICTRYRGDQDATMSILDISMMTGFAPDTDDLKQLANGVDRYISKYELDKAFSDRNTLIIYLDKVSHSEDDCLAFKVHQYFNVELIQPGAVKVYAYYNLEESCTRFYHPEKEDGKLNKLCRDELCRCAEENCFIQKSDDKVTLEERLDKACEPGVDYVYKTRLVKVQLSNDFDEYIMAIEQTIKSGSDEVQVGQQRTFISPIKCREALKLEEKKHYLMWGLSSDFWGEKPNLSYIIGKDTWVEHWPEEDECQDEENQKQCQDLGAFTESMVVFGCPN
UniProt Q09028: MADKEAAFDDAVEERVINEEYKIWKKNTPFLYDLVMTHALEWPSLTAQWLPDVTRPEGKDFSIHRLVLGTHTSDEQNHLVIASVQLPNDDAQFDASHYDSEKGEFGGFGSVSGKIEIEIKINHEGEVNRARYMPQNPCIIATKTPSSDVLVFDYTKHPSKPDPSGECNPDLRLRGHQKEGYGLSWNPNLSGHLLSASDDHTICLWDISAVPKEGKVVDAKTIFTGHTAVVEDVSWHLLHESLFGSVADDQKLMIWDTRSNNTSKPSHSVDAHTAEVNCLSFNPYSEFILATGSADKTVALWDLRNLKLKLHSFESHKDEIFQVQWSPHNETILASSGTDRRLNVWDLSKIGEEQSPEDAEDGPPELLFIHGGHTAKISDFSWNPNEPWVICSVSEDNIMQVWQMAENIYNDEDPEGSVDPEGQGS

Target: complement C3b, the activated fragment of complement component 3 (nuclear C3b of A549-PTX cells) (human (endogenous in A549)) (UniProt P01024)
Experiment: affinity purification with mass spectrometry; nuclear proteins of A549-PTX cells; co-IP of C3b-binding proteins followed by mass spectrometric analysis

binding: binds
Substance: RBBP4 (from UniProt Q09028 1-425)

No constants are given. Whether binding was seen depends on the method and setting. In cells and extracts the contact can be indirect. These calls come from enrichment with a bait or labelling near it, and not all partners need be listed.
